Experimental data published in publication PMC12832388.
These are yes or no findings as the source states them, for the method shown. Binding seen in cells or lysates may run through a third protein. Some binding calls cover weakened binding; strength is not graded here.

By UniProt entry, the sequences of proteins in these tests, tags left out.
UniProt Q8R4B8: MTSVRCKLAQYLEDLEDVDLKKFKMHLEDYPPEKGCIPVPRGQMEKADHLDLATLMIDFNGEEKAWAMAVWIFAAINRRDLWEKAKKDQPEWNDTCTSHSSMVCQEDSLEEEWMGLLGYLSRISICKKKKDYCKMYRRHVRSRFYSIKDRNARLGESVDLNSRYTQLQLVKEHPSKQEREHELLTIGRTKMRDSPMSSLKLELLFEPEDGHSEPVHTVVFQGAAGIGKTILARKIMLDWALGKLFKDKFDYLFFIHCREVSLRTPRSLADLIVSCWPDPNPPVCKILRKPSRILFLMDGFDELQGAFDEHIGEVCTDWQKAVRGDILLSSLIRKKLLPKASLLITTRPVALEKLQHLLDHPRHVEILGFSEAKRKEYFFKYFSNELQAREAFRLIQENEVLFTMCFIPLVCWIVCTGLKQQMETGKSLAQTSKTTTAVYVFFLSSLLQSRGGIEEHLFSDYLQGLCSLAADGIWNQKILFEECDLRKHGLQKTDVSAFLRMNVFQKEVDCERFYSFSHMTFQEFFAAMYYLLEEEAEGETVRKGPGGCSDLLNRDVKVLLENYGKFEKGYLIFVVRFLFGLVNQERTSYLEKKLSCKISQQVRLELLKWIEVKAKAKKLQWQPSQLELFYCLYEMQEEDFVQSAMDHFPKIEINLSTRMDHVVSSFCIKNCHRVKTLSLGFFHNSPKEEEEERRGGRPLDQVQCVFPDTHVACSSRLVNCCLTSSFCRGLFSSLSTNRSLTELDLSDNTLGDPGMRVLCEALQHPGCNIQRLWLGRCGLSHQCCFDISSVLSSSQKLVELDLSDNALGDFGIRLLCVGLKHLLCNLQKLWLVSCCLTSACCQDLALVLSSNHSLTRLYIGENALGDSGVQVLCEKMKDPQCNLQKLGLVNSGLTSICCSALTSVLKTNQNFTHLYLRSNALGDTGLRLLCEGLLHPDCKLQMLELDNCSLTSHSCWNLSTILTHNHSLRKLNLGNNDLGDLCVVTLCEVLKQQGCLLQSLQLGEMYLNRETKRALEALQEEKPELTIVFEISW

Target: T1, Interferon regulatory factor 7 (mouse (endogenous in BV2)) (UniProt P70434)
T1 sequence: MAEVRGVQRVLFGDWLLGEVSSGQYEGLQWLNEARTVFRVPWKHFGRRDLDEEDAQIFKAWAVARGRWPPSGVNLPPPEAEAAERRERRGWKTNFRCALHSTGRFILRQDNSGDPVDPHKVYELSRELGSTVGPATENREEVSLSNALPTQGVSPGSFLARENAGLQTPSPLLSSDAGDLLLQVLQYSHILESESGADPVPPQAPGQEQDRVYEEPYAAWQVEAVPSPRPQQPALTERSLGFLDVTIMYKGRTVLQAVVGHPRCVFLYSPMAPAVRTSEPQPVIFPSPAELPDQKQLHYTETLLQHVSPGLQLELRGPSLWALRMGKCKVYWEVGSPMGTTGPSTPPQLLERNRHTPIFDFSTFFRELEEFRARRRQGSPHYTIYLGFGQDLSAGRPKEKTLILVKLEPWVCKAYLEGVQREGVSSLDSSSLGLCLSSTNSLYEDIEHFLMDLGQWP
Test: co-IP; lysate of E50K-BV2 cells; anti-IRF7 antibody (rabbit IgG as control) on Protein A/G magnetic beads, 4°C for 2 h, washed three times with PBST; Western blot for NLRP3

binding: binds
Substance: NOD-like Receptor Protein 3 (from UniProt Q8R4B8 1-1033)
